According to article doi:10.1101/2020.09.14.296160:
Results are given in words; binding and its absence hold for the method and conditions named. Some entries that bind do so weakly or less than the wild type.

Protein sequences, listed by entry. Tags and fused reporters are not part of them.
UniProt Q71RC2: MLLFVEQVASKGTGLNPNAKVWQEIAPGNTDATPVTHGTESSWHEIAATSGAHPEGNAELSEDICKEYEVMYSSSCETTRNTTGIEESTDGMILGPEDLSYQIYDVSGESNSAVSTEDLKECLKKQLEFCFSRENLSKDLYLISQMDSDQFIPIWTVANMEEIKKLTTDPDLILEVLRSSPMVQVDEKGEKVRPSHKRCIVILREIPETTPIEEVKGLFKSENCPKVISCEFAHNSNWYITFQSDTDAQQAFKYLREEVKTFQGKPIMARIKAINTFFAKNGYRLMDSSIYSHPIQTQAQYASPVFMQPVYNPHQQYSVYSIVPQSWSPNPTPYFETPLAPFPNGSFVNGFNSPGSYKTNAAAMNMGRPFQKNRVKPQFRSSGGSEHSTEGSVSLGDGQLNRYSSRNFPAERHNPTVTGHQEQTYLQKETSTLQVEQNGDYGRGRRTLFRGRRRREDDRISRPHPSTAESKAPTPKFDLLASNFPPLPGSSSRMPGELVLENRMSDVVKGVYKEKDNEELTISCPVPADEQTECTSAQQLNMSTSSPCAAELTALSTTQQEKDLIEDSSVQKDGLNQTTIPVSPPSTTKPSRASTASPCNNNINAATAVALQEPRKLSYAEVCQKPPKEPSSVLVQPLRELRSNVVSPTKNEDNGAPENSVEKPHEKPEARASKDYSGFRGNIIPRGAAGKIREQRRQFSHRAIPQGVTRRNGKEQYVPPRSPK
UniProt P51116: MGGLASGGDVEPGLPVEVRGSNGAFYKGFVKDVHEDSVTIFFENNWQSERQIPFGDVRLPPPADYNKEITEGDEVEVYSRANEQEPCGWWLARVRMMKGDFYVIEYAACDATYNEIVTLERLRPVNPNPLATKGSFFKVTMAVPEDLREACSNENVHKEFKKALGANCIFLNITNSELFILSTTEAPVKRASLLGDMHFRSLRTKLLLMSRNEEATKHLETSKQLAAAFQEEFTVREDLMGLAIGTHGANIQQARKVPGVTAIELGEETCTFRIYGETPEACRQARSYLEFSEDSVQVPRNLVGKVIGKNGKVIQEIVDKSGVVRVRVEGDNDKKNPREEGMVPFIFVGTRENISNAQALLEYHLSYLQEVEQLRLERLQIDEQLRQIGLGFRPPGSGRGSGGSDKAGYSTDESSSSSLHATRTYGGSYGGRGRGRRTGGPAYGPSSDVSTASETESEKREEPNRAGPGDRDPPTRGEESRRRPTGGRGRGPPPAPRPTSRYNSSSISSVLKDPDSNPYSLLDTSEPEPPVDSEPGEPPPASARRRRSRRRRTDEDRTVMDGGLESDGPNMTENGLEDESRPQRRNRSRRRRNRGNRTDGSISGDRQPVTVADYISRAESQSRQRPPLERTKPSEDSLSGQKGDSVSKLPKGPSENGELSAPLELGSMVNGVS
UniProt Q9Y6M1: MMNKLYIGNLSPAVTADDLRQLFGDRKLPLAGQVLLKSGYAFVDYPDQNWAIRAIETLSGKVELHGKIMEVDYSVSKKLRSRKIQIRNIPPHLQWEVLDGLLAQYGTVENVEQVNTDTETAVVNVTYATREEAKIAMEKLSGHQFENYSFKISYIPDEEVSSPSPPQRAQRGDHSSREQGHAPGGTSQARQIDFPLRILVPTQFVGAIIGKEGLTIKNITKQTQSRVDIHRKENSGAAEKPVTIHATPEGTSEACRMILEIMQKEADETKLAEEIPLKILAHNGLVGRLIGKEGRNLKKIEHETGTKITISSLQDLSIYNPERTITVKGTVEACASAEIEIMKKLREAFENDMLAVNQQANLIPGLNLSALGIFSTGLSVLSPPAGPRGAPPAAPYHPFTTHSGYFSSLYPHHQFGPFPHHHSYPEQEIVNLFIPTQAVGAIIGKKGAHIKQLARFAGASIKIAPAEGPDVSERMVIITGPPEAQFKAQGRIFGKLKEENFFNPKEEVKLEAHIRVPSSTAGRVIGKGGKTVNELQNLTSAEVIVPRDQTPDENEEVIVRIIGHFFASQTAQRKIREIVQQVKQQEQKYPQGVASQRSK
UniProt O43809: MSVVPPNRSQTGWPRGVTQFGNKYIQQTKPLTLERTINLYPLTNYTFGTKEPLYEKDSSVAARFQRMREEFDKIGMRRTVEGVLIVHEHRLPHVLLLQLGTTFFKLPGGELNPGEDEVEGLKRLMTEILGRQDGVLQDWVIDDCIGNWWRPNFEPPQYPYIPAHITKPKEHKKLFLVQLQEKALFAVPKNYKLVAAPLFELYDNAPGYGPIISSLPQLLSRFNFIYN
UniProt Q9UKA9: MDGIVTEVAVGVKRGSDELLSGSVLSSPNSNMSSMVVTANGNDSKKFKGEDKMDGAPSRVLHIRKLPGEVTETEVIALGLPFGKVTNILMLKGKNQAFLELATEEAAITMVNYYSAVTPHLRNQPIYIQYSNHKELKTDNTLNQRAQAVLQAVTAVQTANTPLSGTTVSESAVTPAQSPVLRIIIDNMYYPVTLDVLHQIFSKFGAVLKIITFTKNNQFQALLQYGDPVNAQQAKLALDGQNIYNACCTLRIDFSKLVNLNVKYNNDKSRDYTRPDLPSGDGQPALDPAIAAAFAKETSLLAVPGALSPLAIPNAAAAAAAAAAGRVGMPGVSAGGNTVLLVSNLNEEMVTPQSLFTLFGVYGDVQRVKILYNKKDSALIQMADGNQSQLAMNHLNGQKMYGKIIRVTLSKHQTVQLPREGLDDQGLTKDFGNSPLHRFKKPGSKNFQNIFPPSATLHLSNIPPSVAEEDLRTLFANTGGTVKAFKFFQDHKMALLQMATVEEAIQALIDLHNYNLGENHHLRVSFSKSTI
UniProt P26599: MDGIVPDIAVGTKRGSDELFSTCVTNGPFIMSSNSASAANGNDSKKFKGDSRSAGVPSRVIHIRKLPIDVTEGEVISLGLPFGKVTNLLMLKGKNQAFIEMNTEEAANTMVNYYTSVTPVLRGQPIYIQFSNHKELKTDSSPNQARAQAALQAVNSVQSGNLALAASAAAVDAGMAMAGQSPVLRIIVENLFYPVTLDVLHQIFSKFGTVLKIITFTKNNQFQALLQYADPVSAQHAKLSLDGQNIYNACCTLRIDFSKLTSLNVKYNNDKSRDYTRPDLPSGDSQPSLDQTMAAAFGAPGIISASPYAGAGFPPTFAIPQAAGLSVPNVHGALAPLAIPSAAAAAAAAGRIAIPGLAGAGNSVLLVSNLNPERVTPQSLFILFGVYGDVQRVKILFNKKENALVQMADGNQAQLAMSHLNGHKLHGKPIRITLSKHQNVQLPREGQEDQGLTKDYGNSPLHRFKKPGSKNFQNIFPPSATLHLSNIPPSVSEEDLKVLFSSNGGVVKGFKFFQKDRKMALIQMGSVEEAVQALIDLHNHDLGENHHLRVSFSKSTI
UniProt Q9NRW3: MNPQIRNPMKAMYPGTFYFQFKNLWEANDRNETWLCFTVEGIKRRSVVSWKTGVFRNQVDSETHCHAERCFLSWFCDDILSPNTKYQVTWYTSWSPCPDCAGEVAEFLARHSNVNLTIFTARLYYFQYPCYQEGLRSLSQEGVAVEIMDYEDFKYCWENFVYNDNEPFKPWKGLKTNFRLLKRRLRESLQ
UniProt Q01844: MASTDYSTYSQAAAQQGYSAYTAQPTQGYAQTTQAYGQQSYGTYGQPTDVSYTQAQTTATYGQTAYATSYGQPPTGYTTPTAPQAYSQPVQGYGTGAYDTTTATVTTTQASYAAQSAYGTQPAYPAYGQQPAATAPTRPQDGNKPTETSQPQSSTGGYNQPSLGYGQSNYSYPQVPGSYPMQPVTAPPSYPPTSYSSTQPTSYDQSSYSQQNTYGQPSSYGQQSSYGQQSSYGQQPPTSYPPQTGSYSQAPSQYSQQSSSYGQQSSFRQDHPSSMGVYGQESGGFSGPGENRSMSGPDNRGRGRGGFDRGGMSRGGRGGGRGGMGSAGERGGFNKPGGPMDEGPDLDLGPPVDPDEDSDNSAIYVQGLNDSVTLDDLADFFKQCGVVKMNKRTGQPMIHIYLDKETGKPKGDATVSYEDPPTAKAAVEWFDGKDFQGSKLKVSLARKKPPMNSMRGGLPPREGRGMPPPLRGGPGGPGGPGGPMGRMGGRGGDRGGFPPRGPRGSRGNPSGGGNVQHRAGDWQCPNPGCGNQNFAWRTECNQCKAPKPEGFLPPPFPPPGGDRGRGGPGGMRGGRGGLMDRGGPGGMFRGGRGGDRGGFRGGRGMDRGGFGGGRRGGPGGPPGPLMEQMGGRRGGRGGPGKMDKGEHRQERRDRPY
UniProt P51114: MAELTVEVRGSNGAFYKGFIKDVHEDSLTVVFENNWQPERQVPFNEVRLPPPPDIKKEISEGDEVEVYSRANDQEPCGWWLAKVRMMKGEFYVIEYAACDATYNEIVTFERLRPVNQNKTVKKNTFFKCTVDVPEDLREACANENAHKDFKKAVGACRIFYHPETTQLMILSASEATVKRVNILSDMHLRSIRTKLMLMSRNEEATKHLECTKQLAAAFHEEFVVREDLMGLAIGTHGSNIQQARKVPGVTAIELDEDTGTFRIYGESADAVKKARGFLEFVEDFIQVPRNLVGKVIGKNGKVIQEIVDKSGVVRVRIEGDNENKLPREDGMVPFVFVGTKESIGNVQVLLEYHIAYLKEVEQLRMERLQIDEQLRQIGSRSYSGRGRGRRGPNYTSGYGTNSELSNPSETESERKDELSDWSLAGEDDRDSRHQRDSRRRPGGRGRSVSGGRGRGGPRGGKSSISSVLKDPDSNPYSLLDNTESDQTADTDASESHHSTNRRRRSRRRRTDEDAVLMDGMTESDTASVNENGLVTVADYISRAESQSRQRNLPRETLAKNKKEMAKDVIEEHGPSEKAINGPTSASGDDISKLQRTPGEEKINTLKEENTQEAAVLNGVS
UniProt P11940: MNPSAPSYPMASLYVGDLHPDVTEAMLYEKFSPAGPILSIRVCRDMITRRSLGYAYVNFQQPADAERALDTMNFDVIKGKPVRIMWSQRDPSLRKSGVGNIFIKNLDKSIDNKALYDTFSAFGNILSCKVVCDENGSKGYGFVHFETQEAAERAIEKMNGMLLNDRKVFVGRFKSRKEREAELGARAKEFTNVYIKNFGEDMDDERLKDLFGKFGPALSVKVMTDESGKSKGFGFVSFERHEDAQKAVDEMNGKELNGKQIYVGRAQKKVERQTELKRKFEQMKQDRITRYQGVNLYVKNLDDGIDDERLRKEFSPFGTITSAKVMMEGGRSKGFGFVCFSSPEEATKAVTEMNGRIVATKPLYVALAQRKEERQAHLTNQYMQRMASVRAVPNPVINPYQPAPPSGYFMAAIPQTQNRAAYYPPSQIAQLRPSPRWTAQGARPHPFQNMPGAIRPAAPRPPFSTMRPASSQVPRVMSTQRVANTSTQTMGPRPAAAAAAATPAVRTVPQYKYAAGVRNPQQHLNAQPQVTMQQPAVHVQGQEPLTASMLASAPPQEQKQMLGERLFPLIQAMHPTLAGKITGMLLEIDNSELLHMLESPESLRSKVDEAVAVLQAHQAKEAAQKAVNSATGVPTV
UniProt P61326: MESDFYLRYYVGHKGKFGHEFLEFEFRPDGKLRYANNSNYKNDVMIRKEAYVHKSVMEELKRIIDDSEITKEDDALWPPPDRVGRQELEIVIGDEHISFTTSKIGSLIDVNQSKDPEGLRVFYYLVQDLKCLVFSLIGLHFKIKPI
UniProt P98175: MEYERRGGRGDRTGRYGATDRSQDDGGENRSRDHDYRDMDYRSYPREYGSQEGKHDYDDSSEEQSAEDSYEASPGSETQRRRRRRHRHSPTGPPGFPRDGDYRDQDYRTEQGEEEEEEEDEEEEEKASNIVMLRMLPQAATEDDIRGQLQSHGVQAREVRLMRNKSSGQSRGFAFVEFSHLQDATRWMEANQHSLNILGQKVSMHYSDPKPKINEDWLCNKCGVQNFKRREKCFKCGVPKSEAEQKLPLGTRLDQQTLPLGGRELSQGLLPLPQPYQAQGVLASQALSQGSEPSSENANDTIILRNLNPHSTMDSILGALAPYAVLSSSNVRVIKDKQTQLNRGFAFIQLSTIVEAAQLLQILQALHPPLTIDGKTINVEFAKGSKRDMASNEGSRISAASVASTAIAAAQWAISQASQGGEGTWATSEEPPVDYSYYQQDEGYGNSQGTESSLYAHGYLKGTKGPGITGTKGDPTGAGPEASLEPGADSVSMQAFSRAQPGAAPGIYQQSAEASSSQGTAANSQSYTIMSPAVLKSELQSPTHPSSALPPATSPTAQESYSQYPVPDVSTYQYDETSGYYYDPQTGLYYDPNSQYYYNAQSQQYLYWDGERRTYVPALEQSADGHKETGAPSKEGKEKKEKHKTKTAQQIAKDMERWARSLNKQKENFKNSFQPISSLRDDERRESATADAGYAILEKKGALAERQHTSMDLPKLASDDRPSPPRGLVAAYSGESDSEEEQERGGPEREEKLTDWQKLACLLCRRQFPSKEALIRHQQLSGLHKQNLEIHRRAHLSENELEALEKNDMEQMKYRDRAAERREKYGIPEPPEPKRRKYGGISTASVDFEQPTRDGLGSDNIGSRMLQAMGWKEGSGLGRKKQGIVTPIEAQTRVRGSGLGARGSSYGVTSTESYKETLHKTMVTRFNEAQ

Assays:
Test in all cases: two-hybrid
LARP4 (human) = LARP4 (human) (UniProt Q71RC2)
CSTF2T (human) = target: T1, CSTF2T (human) (UniProt Q9H0L4)
T1 sequence: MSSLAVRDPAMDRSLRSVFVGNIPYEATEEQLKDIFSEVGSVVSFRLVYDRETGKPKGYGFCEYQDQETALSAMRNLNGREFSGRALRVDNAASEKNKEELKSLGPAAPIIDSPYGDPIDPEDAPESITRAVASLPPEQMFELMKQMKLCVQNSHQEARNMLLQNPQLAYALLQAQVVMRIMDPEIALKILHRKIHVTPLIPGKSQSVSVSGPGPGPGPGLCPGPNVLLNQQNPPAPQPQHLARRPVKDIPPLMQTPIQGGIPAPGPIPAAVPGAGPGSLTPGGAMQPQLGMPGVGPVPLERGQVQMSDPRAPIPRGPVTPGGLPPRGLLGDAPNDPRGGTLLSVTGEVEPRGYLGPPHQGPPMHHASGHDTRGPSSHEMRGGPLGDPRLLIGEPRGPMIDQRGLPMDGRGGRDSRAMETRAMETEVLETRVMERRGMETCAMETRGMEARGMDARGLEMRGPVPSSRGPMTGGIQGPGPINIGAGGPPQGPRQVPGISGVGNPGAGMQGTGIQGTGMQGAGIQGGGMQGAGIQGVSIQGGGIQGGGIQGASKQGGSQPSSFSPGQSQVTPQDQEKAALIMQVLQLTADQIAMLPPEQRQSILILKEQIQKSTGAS

FXR2 (human) = FXR2 (human) (UniProt P51116)
QKI (human) = target: T2, QKI (human) (UniProt Q96PU8)
T2 sequence: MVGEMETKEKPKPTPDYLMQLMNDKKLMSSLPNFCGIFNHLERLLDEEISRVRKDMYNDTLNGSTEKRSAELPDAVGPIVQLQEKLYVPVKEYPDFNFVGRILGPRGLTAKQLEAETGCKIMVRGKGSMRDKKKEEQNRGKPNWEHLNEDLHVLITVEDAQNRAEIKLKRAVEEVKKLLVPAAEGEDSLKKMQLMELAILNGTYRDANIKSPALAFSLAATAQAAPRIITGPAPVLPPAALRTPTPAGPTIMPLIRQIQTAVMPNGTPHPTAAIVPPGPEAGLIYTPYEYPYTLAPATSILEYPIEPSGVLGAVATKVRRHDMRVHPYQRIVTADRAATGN

PCBP1 (human) = PCBP1 (human) (UniProt Q15365)
EXOSC8 (human) = EXOSC8 (human) (UniProt Q96B26)
IGF2BP2 (human) = IGF2BP2 (human) (UniProt Q9Y6M1)
RBFOX2 (human) = target: T3, RBFOX2 (human) (UniProt O43251)
T3 sequence: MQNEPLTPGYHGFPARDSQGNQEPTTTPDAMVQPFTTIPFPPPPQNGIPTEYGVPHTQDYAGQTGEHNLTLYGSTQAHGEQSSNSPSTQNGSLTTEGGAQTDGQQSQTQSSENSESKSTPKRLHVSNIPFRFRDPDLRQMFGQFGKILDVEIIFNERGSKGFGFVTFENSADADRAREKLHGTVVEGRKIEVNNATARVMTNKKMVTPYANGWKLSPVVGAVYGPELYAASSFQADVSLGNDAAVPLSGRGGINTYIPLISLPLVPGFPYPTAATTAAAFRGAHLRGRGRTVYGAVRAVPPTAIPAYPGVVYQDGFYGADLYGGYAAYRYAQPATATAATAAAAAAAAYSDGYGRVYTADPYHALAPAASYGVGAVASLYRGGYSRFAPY

[1] = target: T4, zinc-finger protein ZC3H8 (human) (UniProt Q8N5P1)
T4 sequence: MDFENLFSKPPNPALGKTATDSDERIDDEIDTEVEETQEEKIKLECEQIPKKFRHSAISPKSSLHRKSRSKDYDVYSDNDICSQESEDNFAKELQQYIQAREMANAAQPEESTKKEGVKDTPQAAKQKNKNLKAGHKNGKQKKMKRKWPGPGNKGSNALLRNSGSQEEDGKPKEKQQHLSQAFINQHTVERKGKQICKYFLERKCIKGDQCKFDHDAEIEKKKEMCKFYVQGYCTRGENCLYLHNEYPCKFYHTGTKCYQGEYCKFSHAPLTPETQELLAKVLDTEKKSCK

CPSF7 (human) = target: T5, CPSF7 (human) (UniProt Q8N684)
T5 sequence: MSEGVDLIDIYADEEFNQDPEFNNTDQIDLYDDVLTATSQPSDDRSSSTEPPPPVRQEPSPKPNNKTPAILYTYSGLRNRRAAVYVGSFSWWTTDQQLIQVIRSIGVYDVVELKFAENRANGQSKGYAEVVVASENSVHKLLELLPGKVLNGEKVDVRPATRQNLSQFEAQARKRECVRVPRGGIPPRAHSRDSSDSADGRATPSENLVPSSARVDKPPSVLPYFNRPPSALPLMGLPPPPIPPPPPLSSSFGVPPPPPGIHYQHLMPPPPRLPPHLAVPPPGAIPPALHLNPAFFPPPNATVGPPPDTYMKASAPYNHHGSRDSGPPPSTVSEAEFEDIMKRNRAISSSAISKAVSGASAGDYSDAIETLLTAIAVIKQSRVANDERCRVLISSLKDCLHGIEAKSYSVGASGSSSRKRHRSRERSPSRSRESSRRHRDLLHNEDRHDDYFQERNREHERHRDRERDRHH

[2] = target: 3’end processing hydrolase NUDT21 (human) (UniProt O43809)
PTBP2 (human) = PTBP2 (human) (UniProt Q9UKA9)
[3] = target: T6, NEXT component RBM7 (human) (UniProt Q9Y580)
T6 sequence: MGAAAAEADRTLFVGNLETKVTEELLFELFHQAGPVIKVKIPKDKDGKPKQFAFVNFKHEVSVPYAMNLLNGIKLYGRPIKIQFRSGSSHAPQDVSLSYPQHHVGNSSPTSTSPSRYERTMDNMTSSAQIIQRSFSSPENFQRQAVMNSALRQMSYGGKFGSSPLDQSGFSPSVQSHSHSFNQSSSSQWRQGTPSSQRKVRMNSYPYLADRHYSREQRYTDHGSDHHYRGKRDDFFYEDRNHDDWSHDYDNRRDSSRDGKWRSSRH

PTBP1 (human) = PTBP1 (human) (UniProt P26599)

APOBEC3C (from UniProt Q9NRW3 1-190)
binding (LARP4 (human)): binds

EWSR1 (from UniProt Q01844 1-656)
binding (CSTF2T (human)): binds

FXR1 (from UniProt P51114 1-621)
binding (FXR2 (human)): binds

HNRNPK (from UniProt P61978 1-463)
binding (QKI (human)): binds
binding (PCBP1 (human)): binds

PABPC1 (from UniProt P11940 1-636)
binding (EXOSC8 (human)): binds

PCBP1 (from UniProt Q15365 1-356)
binding (IGF2BP2 (human)): binds
binding (RBFOX2 (human)): binds

PTBP1 (from UniProt P26599 1-557)
binding [1]: binds

major EJC component MAGOH (from UniProt P61326 1-146)
binding (CPSF7 (human)): binds
binding [2]: binds

wildtype RBM10 (from UniProt P98175 1-930)
binding (PTBP2 (human)): binds
binding [3]: binds
binding (PTBP1 (human)): binds
